# Results published in patent US20040058976A1, “Ophthalmic compositions for treating ocular hypertension” (priority 2003, published 2004).
# At least one compound was matched to its structure with a doubt left.
# Test system: IOP in Dutch Belted Rabbits
# Experiment: Intraocular pressure (IOP) measurements in conscious Dutch Belted rabbits after topical instillation
# Type: in vivo, rabbit
# Details: 0.1% formulated in peanut oil
# Protocol: Intraocular pressure measurements (IOP) were performed in conscious adult, pigmented Dutch Belted rabbits (2-4 kg). The animals were allowed free access to standard laboratory diet and tap water, and were housed on a 12 hour light/dark cycle. Seven day rest or washout periods were allowed between assessment of the effects of topically administered treatments on IOP. In order to measure IOP, rabbits were placed in commercially available restraint boxes. Rabbits were conditioned to the restraint boxes on at least two occasions for a period of time ranging up to 6 hours before their first study. […] IOP was recorded using a pneumatic tonometer (Alcon Applanation Pneumatonograph). […]
# The initial measurement of control IOP was done on a number of rabbits, and 12 rabbits whose control IOP were between 17-25 mm Hg (values of IOP considered to be normal) were selected for study. […] IOPs were re-measured at 30 min, 1 hour, 2 hours, 3 hours and 4 hours after instillation. Results were expressed as mean+/−SD of changes in IOP (mm Hg) from the basal To levels measured just prior to the instillation of active test agent or vehicle. The significance of the data was determined as the difference from the To value using Dunnett's t-test, as well as use of an unpaired Student's t-test for comparisons of changes in IOP between test substance and vehicle at matched time points. […]
structure (smiles),measurement,value
CC(C)(O)[C@H]1O[C@H]2CC[C@@]3(C)[C@@](O)(CC[C@H]4Cc5c([nH]c6ccccc56)[C@@]43C)C2=CC1=O [Paxilline],effect on IOP (in words),significant IOP lowering
